54 compounds from PubChem BioAssay AID1487 (National Center for Advancing Translational Sciences (NCATS), 2009) can be followed below.

For orientation: AC50 means the concentration at which the activity in the assay is half-maximal.

The test can be described thus: qHTS Assay for Modulators of Lamin A Splicing. Particulars: HeLa LMNA splicing GFP/RFP minigene ratio, 48 h. Put shortly: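 Read-out is the ratio of GFP to DsRed2 object intensity, acquired by 488 nm laser-scanning cytometry on HeLa lamin A-EGFP minigene reporter cells. Compound incubation 48 hrs at 37 °C in Opti-MEM with 2% FBS; DMSO 0.5% final.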
(qHTS replaces the single test concentration by a dilution series.)

The mark [1] stands for this setting: measured here: GFP splicing reporter channel.
The mark [2] stands for this setting: measured here: RFP viability control channel.

The structures appear in SMILES notation. The list shows a part of the results. These are further read-outs of the screen, such as a control signal, another cell line or another target. No call is given for them. Compounds called inactive in the main read-out are mostly missing here. Potencies come from curve fits of mixed quality, noted in brackets.

For the compound `Cc1ccc(Sc2nnc(Cc3ccccc3)c3ccccc23)cc1`, under setting [1], the AC50 was 22.4 µM [falling, single point].
On to `COc1ccc(C2C=C(C34CC5CC(CC(C5)C3)C4)NC(=S)N2)cc1OC` (centres undefined), for which the half-maximal activity concentration (AC50) under setting [2] was 11.2 µM [rising, partial curve].
For the compound `CCCCNC(=O)CSc1nc2ccccc2nc1Cc1ccc(Cl)cc1`, the AC50 under setting [1] was 1 µM [rising, partial curve].
With `CC(C)C(=O)N1c2ccccc2NC2=C(C(=O)CCC2)C1c1ccc(N(C)C)cc1` (centres undefined), the AC50 under setting [1] is 1.41 µM [falling, full curve, poor fit] and the AC50 under setting [2] was 0.178 µM [falling, full curve].
Regarding `COc1ccccc1CNc1ccnc(-c2ccccc2Cl)n1`, the half-maximal activity concentration (AC50) under setting [1] is 15.8 µM [falling, partial curve, poor fit].
As to `CC(Sc1nnc2ccccn12)C(N)=O` (centres undefined), under setting [2], the AC50 is 11.2 µM [falling, single point].
Same read-out and setting: to `CCOc1ccccc1C1CC(c2ccc(Br)cc2)Nc2nc(N)nn21` (centres undefined) belongs 0.0398 µM [rising, full curve, poor fit].
With `COc1cc(OC)c(NC(=O)Nc2ccccc2OCc2cc(=O)n3cc(C)ccc3n2)cc1Cl`, the AC50 is 0.398 µM [rising, single point] under setting [1] and 0.794 µM [rising, single point] under setting [2].
Turning to `COCC(=O)Nc1ccc(OCc2ccccc2)cc1`, the AC50 under setting [1] is 7.08 µM [rising, partial curve, poor fit].
For the compound `COc1ccc(NC(=O)CN(C)S(=O)(=O)c2ccc3[nH]c4c(c3c2)CCCC4)cc1Cl`, the AC50 is, setting by setting: under setting [1], 25.1 µM [falling, partial curve]; under setting [2], 11.2 µM [falling, partial curve].
With `COc1ccc(CCNC(=O)Cn2nnc(-c3ccc(N4CCOCC4)cc3)n2)cc1OC`, the AC50 was 6.31 µM [rising, partial curve, poor fit] under setting [1] and 2 µM [rising, full curve, poor fit] under setting [2].
Regarding `O=C(CCN1CCc2ccccc2C(c2ccccc2)C1)c1ccc2c(c1)OCCO2` (centres undefined), the AC50 under setting [2] was 11.2 µM [rising, partial curve].
As to `Cc1ccc2cc(CCNC(=O)c3cccs3)c(=O)[nH]c2c1C`, the AC50 under setting [1] was 0.447 µM [falling, single point].
As for `O=C(CSc1ncnc2nc[nH]c12)c1ccc2ccccc2c1`, under setting [2], the AC50 was 31.6 µM [rising, single point].
As to `CC12C=CC(=O)C=C1CCC1C3CCC(O)(C(=O)CO)C3(C)CC3OC312` (centres undefined), the AC50 under setting [1] is 0.00355 µM [rising, full curve, poor fit].
Turning to `CC1CCC2C(=O)N(c3ccc(NC4CCN(Cc5ccccc5)CC4)c([N+](=O)[O-])c3)C(=O)C2C1` (centres undefined), the AC50 under setting [1] was 8.91 µM [falling, partial curve] and the AC50 under setting [2] is 4.47 µM [falling, partial curve].
With `Cn1cc(/C=N/n2cnc3scc(-c4ccccc4)c3c2=O)c2ccccc21`, the AC50 is 5.01 µM [falling, full curve] under setting [1] and 5.62 µM [falling, full curve] under setting [2].
Regarding `CCCCCc1ccc(S(=O)(=O)NCCc2ccncc2)cc1`, the AC50 under setting [2] is 12.6 µM [rising, partial curve].
Still for that read-out and setting: next, `CC(C)NC(=O)COC(=O)c1cc(F)c(F)cc1Cl`: 2.24 µM [falling, partial curve, poor fit].
For the compound `CC(C)CNc1c(N)n(CC(C)C)c(=O)[nH]c1=O`, the AC50 under setting [1] was 0.0178 µM [falling, full curve, poor fit].
`CC#CCOC(=O)c1c(C)nc2sc3c(c2c1N)CCC(O)C3` (centres undefined): the AC50 is 0.794 µM [rising, full curve, poor fit] under setting [1] and 0.00447 µM [falling, full curve, poor fit] under setting [2].
On to `CCC(=O)O[C@@]1(C(=O)SCF)[C@@H](C)C[C@H]2[C@@H]3C[C@@H](F)C4=CC(=O)C=C[C@@]4(C)[C@]3(F)[C@@H](O)C[C@]21C`, for which the AC50 under setting [1] is 0.0158 µM [falling, full curve, poor fit].
Consider `O=C(NCCn1cc(SCc2ccc(F)cc2)c2ccccc21)c1ccccc1F`, for which the AC50 is, setting by setting: under setting [1], 10 µM [rising, partial curve]; under setting [2], 20 µM [rising, single point].
For the compound `Cc1c(CCOC(=O)c2cc([N+](=O)[O-])cc([N+](=O)[O-])c2)sc[n+]1CC(=O)c1ccccc1`, under setting [1], the AC50 was 10 µM [rising, single point].
Take `CN1CCc2cccc3c2C1Cc1ccc(O)c(O)c1-3` (centres undefined): the AC50 under setting [1] is 14.1 µM [falling, partial curve, poor fit] and the AC50 under setting [2] was 25.1 µM [falling, partial curve].
Consider `Cc1cccc(NC(=O)CSc2nc3c([nH]c4ccccc43)c(=O)n2C)c1`, for which the half-maximal activity concentration (AC50) is 35.5 µM [falling, partial curve] under setting [1] and 35.5 µM [falling, partial curve] under setting [2].
Regarding `N#C/C(=C/c1ccc(N2CCOCC2)o1)C(=O)Nc1ccccc1`, the AC50 under setting [1] was 0.158 µM [rising, full curve].
Still for that read-out and setting: to `CC(N)(C(=O)O)c1ccc(C(=O)O)cc1` (centres undefined) belongs 0.00631 µM [rising, full curve, poor fit].
In the case of `O=C(CN1CCOCC1)Nc1ncc(Cc2cccc(Cl)c2Cl)s1`, the AC50 under setting [1] is 35.5 µM [rising, single point] and the AC50 under setting [2] was 35.5 µM [rising, single point].
For `CCOc1ccc(/C=C(\C(=O)O)c2ccc(S(=O)(=O)N3CCOCC3)s2)cc1OC`, the AC50 under setting [1] was 0.224 µM [falling, full curve, poor fit] and the half-maximal activity concentration (AC50) under setting [2] was 0.447 µM [falling, full curve, poor fit].
`Cc1ccc(S(=O)(=O)NC(N)=NCCc2ccccc2)cc1C`: the AC50 under setting [2] was 17.8 µM [rising, single point].
As to `CC(C)(C)C1CCC(=NNC(=S)Nc2cccnc2)CC1` (centres undefined), under setting [1], the AC50 was 35.5 µM [rising, single point].
For `O=C(/C=C/c1cccc([N+](=O)[O-])c1)NCCSCc1cccc(Cl)c1`, the AC50 under setting [2] was 12.6 µM [rising, partial curve, poor fit].
For the compound `Cc1ccc(NCc2nnc3n2CCCCC3)cc1Cl`, the AC50 under setting [1] is 0.891 µM [falling, full curve, poor fit] and the concentration at half-maximal activity (AC50) under setting [2] is 0.708 µM [falling, full curve, poor fit].
Turning to `Cc1ccc(NC(=S)NNc2ncc(C(F)(F)F)cc2Cl)c(C)c1`, the AC50 under setting [2] was 17.8 µM [rising, single point].
Same read-out and setting: to `CCOCCN1CCN(c2c(CC)c(C)nc3cc(-c4cc(OC)cc(OC)c4)nn23)CC1` belongs 15.8 µM [rising, partial curve]; to `CCOC(=O)C(C)Sc1ncnc2c1c(-c1ccccc1)cn2-c1ccc(OC)cc1` (centres undefined), 3.55 µM [rising, full curve, poor fit].
For `O[C@H](c1cc(C(F)(F)F)nc2c(C(F)(F)F)cccc12)[C@H]1CCCCN1`, the half-maximal activity concentration (AC50) is, setting by setting: under setting [1], 5.62 µM [falling, partial curve]; under setting [2], 8.91 µM [falling, partial curve].
Turning to `COc1ccc(S(=O)(=O)NCCSCc2cccc(C)c2)cc1Br`, under setting [1], the AC50 is 0.794 µM [falling, full curve, poor fit].
As for `C/C(=N/Nc1nc(C)cc(-c2ccccc2)n1)c1ccco1`, the AC50 under setting [2] was 35.5 µM [rising, single point].
For `Cc1cc(C)c(/C=C/c2onc(C)c2S(=O)(=O)N2CCC(C(=O)N3CCN(c4ccccc4)CC3)CC2)c(C)c1`, the AC50 reads like this: under setting [1], 4.47 µM [falling, partial curve, poor fit]; under setting [2], 2.24 µM [falling, partial curve].
For the compound `COc1cccc(N(C(=O)Cn2nnc(-c3ccc(F)cc3)n2)C(C(=O)NCC2CCCO2)c2ccc(Cl)cc2)c1` (centres undefined), the AC50 runs as follows: under setting [1], 7.94 µM [falling, partial curve]; under setting [2], 7.94 µM [falling, full curve, poor fit].
For `CN(Cc1cnn(C)c1)C(=O)c1sc2cccc(Cl)c2c1Cl`, the AC50 under setting [2] is 12.6 µM [rising, single point].
Turning to `CC1CCc2nc3ncn(CC(=O)Nc4cccc(C#N)c4)c(=O)c3cc2C1` (centres undefined), the AC50 under setting [1] was 0.708 µM [rising, full curve, poor fit] and the concentration at half-maximal activity (AC50) under setting [2] was 3.98 µM [rising, partial curve].
For the compound `CC(NC(=O)Nc1ccc(Br)cc1)C(C)(C)C` (centres undefined), under setting [2], the half-maximal activity concentration (AC50) was 35.5 µM [rising, single point].
Regarding `CCn1cc(C(=O)O)c(=O)c2cc(F)c(N3CCN(C)CC3)cc21`, the AC50 under setting [1] is 1 µM [falling, partial curve, poor fit].
For `Cc1ccc(-c2ccc(=O)n(C(C)C(=O)Nc3ccccc3Cl)n2)cc1C` (centres undefined), the AC50 under setting [2] was 3.55 µM [rising, partial curve, poor fit].
For `Cc1ccc(S(=O)(=O)N(C)c2ccc(OCC(=O)Nc3nc(-c4ccccc4)cs3)cc2)cc1`, the AC50 is 10 µM [rising, partial curve, poor fit] under setting [1] and 11.2 µM [rising, partial curve] under setting [2].
On to `COc1cc(Cl)c(C)cc1NC(=O)CN1c2ccccc2S(=O)(=O)c2ccccc21`, for which the half-maximal activity concentration (AC50) under setting [1] is 1.58 µM [rising, partial curve, poor fit].
With `COc1cc(OC)cc(C(=O)NNC(=S)NCc2ccco2)c1`, the AC50 reads like this: under setting [1], 2 µM [falling, full curve, poor fit]; under setting [2], 2.51 µM [falling, full curve, poor fit].
Consider `Cc1occc1-c1nnc(SCC(=O)NCCc2ccccc2)n1Cc1ccccc1`, for which the AC50 under setting [1] is 4.47 µM [rising, full curve, poor fit].
In the case of `Cc1cccnc1N(C(=O)Nc1cccc(Cl)c1)C1=NCC(C)(C)S1`, the AC50 under setting [2] is 1.41 µM [falling, partial curve, poor fit].
On to `Cc1cccc(-n2ncc(C(=O)N3CCC(C)CC3)c2C2CCN(C(=O)OC(C)(C)C)CC2)c1`, for which the concentration at half-maximal activity (AC50) under setting [1] was 0.00316 µM [falling, full curve, poor fit].
For `CCc1ccccc1N(CC(=O)N1CCN(c2ccc(F)cc2)CC1)S(C)(=O)=O`, the AC50 runs as follows: under setting [1], 15.8 µM [rising, partial curve, poor fit]; under setting [2], 20 µM [rising, single point].
